In publication PMC4385842:
These are yes or no findings as the source states them, for the method shown. In cells and extracts the contact can be indirect. Some entries that bind do so weakly or less than the wild type.

Chains of the proteins cited; added tags and fusions are not shown.
UniProt O43707: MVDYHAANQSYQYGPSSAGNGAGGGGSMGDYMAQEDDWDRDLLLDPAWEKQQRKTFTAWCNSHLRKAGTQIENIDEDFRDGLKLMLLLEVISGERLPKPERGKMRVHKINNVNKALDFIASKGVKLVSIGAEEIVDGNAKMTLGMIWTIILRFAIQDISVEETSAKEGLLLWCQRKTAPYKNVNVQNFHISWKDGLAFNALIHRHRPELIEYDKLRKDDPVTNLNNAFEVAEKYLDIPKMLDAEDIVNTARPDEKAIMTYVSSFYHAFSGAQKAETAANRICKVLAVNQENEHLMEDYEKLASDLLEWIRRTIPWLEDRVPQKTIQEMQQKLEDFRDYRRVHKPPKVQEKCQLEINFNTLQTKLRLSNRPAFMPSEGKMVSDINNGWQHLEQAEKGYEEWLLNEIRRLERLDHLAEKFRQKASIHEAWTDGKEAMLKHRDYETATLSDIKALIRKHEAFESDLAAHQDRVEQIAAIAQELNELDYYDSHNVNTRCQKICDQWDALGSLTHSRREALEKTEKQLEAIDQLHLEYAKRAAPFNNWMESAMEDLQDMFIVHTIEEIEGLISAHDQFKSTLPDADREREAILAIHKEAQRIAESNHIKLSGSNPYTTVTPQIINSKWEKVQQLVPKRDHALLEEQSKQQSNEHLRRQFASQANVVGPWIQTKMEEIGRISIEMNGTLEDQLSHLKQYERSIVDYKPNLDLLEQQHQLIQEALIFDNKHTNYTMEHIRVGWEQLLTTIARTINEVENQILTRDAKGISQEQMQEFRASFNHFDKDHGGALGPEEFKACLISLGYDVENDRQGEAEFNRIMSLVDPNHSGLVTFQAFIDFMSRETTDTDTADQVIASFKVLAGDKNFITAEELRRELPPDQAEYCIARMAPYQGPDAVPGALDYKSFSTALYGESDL

Target: T1, Caprin-1 (Cytoplasmic activation- and proliferation-associated protein 1) (human (endogenous in HONE-1)) (UniProt Q14444)
T1 sequence: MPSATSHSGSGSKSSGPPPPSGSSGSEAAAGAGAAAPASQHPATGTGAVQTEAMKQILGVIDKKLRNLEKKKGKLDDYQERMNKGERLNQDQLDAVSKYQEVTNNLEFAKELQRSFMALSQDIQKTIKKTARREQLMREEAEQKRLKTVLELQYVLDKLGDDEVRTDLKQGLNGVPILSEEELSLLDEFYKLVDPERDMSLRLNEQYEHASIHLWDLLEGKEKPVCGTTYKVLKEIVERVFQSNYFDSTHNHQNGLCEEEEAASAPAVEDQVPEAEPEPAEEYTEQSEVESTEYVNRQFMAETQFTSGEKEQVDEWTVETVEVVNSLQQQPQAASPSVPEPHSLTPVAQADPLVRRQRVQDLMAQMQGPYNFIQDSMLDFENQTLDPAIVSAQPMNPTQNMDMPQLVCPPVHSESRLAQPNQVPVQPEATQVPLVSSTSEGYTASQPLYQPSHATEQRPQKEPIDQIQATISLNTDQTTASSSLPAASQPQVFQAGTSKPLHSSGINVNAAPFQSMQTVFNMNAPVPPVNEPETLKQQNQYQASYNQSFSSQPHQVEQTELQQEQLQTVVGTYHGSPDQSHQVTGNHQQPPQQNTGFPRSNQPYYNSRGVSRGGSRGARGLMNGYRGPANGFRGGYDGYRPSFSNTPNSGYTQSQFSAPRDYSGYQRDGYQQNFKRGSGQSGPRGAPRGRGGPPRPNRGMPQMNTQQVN
Assay: co-IP; anti-caprin-1 antibody (ProteinTech Group) on HONE-1 cell lysate in the presence of biotinylated tylophorine; immunoblot with the indicated antibodies

binding: binds
Substance: α-actinin-4 (from UniProt O43707 1-911)
